PubChem BioAssay AID1508597 – Cure First, 2020

Purpose: 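Survival screen with siRNA in ovarian cancer cells derived from patients, with or without rucaparib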 (primary screen)
System: human ovarian carcinoma lines grown from tumours: OCI-P5x (papillary serous) and OCI-C5x (clear cell)
Knock-down reagent: siRNA pool against human genes, 1.25 pmol siRNA per well
Timing: 72 h or 96 h, depending on the cell culture
Conditions: rucaparib 20 µM (about IC30) or vehicle, present until read-out
Rucaparib or vehicle: Vehicle
Cell line: OCI-C5x (clear cell)
Measurement: 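ATP luminescence measured at 72 or 96 h according to the culture, then normalised and expressed as percent viability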
Scale: viability, normalised: higher = more viable cells remaining
Hit rule: 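Active when normalised viability falls below 80 percent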
Calls: active = viability under 80%; inactive = viability 80% or more
Shown is a random part of the about 2,100 reagents, in one setting of the screen. 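Calls flag viability under 80% in either arm, not effects specific to rucaparib; the reference for percent is not stated.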 A number with no mark means an inactive call. Not stated in the record: the 100% reference.

With CABIN1 (GeneID 23523), technical replicate 1, what does the deposit list?
viability, normalised (%): 31.7 (active)

What is on record for CABIN1 (GeneID 23523), technical replicate 2?
viability, normalised (%): 45.1 (active)

With CABIN1 (GeneID 23523), technical replicate 3, what was measured?
viability, normalised (%): 26.5 (active)

What is on record for TOP2A (GeneID 7153), technical replicate 1?
viability, normalised (%): 31.8 (active)

For TOP2A (GeneID 7153), technical replicate 2, what was measured?
viability, normalised (%): 50.1 (active)

With TOP2A (GeneID 7153), technical replicate 3, what was measured?
viability, normalised (%): 50.1 (active)

For MIP (GeneID 4284), technical replicate 1, how do the results read?
viability, normalised (%): 60 (active)

What is on record for MIP (GeneID 4284), technical replicate 2?
viability, normalised (%): 45.8 (active)

With MIP (GeneID 4284), technical replicate 3, what was measured?
viability, normalised (%): 31.1 (active)

How did the screen score TREX1 (GeneID 11277), technical replicate 1?
viability, normalised (%): 43.9 (active)

Which result is listed for TREX1 (GeneID 11277), technical replicate 2?
viability, normalised (%): 40.6 (active)

With TREX1 (GeneID 11277), technical replicate 3, what was measured?
viability, normalised (%): 43.4 (active)

2 entries from above, ordered by “viability, normalised (%)”, lowest first.
TOP2A (GeneID 7153), technical replicate 3 → viability, normalised (%): 50.1 (active)
MIP (GeneID 4284), technical replicate 1 → viability, normalised (%): 60 (active)
